PubChem BioAssay AID1259281, Sanger Institute – 2017
Screen: 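Screen kinases and frequently colorectal-mutated genes for lethal knock-downs and drug partners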 (primary screen). System: human COLO678 colorectal cancer cell line. Knock-down reagent: siRNA pool against human genes. Challenge: anchor drugs at fixed doses: BYL719 1 µM, cetuximab 5 µg/ml or trametinib 10 nM; DMSO vehicle for the siRNA-alone arm. Read-out: 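Surviving cells scaled to non-targeting siRNA control as replicate means; robust z-score for knock-down alone; synergy scores weigh knock-down with drug against the predicted combined effect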. Direction: robust z-score, siRNA alone: higher = more viable cells; strongly negative means essential; viability, siRNA alone: higher = more surviving cells; synergy score with BYL719 and synergy score with trametinib and synergy score with cetuximab: higher = stronger synergistic killing with drug. Call rule: 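Called essential (knock-down alone) if knock-down by itself drops cell number to a robust z-score under -3; all others no change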. Meaning of the calls: active = essential (knock-down alone); inactive = no change.
Shown is an unselected part of 794 deposited reagents. Over the whole deposit, 22 (2.8%) were called active. 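Calls rest on knock-down alone only; drug synergy scores play no part in them.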 A number with no mark means an inactive call. No viability above 1 is reported: the scale is capped. Not given: the amount of reagent, the time to read-out.

gene	robust z-score, siRNA alone	viability, siRNA alone (fraction of control)	synergy score with BYL719	synergy score with trametinib	synergy score with cetuximab
RIOK3 (RIO kinase 3)	0.473	1	-0.0919	0.0823	-0.0347
HIPK3 (homeodomain interacting protein kinase 3)	0.473	1	0.15	0.0786	-0.0176
STK25 (serine/threonine kinase 25)	-1.31	0.943	0.0583	0.0257	-0.0398
PIP5K1C (phosphatidylinositol-4-phosphate 5-kinase type 1 gamma)	-0.366	0.973	-0.116	0.0648	-0.023
JAK2 (Janus kinase 2)	0.473	1	-0.0277	-0.011	-0.016
PRPS2 (phosphoribosyl pyrophosphate synthetase 2)	0.473	1	-0.0171	0.0326	-0.0476
PSTK (phosphoseryl-tRNA kinase)	0.473	1	-0.0919	0.115	0.02
IPMK (inositol polyphosphate multikinase)	0.473	1	-0.0846	0.000583	-0.0555
CSNK1A1 (casein kinase 1 alpha 1)	-2	0.921	-0.0578	0.0442	-0.031

Sorted by “synergy score with cetuximab” (descending): some entries from above
gene	robust z-score, siRNA alone	viability, siRNA alone (fraction of control)	synergy score with BYL719	synergy score with trametinib	synergy score with cetuximab
JAK2 (Janus kinase 2)	0.473	1	-0.0277	-0.011	-0.016
PIP5K1C (phosphatidylinositol-4-phosphate 5-kinase type 1 gamma)	-0.366	0.973	-0.116	0.0648	-0.023
STK25 (serine/threonine kinase 25)	-1.31	0.943	0.0583	0.0257	-0.0398

Continued:
gene	robust z-score, siRNA alone	viability, siRNA alone (fraction of control)	synergy score with BYL719	synergy score with trametinib	synergy score with cetuximab
GRK5 (G protein-coupled receptor kinase 5)	0.473	1	-0.034	-0.0169	0.0286
MKNK1 (MAPK interacting serine/threonine kinase 1)	0.473	1	0.0285	0.00204	0.0384
PRKAB2 (protein kinase AMP-activated non-catalytic subunit beta 2)	0.473	1	0.0784	-0.0794	0.025
RELA (RELA proto-oncogene, NF-kB subunit)	-0.89	0.957	-0.00705	0.0187	-0.015
CLK4 (CDC like kinase 4)	-1.21	0.946	-0.141	-0.127	0.0538
DLG1 (discs large MAGUK scaffold protein 1)	0.473	1	-0.0919	0.0329	0.0265
PFKFB2 (6-phosphofructo-2-kinase/fructose-2,6-biphosphatase 2)	0.359	0.996	0.0978	0.0451	0.0273
PHKG2 (phosphorylase kinase catalytic subunit gamma 2)	0.298	0.994	-0.097	-0.039	-0.0733
MPP2 (MAGUK p55 scaffold protein 2)	0.473	1	-0.0318	0.0411	0.0866
MAGI2	0.473	1	-0.0919	0.0273	0.0246
PGK2 (phosphoglycerate kinase 2)	-1.14	0.949	-0.121	-0.00891	-0.0919
